Measurements published in the supplement of paper PMC12823440, “Inhibitors supercharge kinase turnover through native proteolytic circuits” (Nature, 2025).
Where a name gives a salt, the structure may show the parent alone. This is one part of the list. Hit calls seldom repeat between salt and free forms of one compound.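 Kinases were expressed as nanoluciferase fusions in K562 cells and luminescence was read every 4 h between 2 and 18 h as percent of control, DMSO set to 100% and a positive control to 0%. A time point counts as decreased when the signal drops significantly (2 sigma). The hit call is the authors' own, does not follow from the count of time points alone, and its rule is not shown.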

Chains of the proteins cited; added tags and fusions are not shown. Lines headed by an entry give the natural chain unless they say otherwise; changes in a name come on top.
UniProt O75460: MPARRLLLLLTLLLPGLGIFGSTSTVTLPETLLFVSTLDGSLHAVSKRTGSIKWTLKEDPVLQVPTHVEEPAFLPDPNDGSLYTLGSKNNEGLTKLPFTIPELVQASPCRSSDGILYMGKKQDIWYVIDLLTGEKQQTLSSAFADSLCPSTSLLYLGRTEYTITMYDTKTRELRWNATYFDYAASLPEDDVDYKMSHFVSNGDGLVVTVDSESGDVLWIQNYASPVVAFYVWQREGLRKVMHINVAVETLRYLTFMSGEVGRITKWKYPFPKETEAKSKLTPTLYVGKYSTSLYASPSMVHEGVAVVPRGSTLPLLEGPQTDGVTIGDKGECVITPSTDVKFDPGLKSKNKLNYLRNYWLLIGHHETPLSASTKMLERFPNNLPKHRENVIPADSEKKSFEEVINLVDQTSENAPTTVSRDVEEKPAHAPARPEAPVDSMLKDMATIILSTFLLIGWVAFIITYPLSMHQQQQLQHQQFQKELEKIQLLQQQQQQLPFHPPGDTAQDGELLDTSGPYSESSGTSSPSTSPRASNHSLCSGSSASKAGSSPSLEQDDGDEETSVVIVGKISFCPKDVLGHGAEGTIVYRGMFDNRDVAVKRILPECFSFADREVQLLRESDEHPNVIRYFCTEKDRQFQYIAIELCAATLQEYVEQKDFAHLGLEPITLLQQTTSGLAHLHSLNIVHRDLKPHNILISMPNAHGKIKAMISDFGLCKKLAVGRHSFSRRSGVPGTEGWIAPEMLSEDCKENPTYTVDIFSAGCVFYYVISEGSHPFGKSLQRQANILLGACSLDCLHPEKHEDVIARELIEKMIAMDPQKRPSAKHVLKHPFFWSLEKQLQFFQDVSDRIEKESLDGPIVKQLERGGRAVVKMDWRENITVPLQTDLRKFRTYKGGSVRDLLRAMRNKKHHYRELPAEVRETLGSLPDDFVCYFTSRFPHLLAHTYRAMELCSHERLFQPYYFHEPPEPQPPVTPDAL
UniProt P11362, whole entry, looked up: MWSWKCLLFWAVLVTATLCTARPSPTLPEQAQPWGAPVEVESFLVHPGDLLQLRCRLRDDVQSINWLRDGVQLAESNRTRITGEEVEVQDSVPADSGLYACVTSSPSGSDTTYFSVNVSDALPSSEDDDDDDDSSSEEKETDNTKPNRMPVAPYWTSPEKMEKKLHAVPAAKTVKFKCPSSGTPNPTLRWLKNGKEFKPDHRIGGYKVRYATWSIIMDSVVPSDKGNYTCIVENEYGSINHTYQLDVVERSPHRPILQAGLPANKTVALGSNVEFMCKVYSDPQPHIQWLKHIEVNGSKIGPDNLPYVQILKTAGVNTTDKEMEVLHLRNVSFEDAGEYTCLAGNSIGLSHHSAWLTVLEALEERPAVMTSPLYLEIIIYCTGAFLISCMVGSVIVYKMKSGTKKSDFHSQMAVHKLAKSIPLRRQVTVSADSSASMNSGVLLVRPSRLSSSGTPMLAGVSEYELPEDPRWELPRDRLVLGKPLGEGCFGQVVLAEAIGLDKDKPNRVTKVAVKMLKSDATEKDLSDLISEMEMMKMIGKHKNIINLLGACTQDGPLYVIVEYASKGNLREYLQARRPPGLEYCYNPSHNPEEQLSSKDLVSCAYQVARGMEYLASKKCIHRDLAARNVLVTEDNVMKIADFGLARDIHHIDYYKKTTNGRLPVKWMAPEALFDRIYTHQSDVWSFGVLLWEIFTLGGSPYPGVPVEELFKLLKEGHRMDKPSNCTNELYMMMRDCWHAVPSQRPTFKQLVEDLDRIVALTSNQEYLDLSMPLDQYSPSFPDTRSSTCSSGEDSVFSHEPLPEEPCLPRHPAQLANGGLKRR
UniProt P21802, whole entry, looked up: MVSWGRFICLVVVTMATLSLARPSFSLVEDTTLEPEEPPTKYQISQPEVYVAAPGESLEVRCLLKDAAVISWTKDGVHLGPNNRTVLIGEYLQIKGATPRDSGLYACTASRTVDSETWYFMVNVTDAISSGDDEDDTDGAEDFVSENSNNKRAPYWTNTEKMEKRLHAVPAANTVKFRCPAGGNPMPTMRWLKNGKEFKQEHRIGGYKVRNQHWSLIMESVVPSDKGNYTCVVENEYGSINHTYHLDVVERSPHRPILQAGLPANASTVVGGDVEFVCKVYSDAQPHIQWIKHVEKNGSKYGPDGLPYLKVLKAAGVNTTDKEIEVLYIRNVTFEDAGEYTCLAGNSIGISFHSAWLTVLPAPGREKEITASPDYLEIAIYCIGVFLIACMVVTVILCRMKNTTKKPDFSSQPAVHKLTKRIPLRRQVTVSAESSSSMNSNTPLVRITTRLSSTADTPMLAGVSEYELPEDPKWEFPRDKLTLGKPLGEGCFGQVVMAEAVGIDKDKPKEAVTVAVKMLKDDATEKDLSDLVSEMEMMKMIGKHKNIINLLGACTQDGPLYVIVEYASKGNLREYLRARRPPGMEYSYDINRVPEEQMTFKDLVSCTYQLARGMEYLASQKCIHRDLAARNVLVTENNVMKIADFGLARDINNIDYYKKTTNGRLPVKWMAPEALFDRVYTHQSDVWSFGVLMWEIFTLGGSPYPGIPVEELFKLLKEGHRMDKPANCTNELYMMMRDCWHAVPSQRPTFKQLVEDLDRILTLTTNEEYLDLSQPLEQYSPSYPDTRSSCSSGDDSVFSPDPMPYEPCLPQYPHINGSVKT
UniProt P36888, whole entry: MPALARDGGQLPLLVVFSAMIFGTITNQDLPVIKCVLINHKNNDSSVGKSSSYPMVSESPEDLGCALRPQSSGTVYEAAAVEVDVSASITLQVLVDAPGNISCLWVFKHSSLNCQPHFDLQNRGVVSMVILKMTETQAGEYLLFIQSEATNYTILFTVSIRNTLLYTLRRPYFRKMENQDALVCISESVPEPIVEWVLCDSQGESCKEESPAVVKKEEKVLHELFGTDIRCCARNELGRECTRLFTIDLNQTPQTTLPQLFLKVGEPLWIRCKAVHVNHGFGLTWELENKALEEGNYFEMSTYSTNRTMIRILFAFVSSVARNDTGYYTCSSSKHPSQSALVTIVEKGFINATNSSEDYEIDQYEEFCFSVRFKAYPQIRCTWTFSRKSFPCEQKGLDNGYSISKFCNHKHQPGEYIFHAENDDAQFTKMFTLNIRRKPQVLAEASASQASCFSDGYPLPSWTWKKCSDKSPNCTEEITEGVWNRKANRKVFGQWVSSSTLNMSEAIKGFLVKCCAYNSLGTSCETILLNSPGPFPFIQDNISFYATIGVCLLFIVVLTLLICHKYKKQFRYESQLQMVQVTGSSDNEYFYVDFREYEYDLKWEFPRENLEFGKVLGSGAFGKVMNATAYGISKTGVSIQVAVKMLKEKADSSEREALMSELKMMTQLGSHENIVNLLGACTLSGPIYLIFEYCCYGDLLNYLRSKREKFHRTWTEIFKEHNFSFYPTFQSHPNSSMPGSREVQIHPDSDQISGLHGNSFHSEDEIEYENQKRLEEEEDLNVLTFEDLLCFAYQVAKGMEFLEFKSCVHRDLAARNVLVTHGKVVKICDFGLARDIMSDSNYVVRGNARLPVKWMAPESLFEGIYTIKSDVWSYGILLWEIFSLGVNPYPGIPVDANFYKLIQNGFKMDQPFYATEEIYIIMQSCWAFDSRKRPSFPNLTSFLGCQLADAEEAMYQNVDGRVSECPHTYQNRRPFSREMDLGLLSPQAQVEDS
UniProt P14616: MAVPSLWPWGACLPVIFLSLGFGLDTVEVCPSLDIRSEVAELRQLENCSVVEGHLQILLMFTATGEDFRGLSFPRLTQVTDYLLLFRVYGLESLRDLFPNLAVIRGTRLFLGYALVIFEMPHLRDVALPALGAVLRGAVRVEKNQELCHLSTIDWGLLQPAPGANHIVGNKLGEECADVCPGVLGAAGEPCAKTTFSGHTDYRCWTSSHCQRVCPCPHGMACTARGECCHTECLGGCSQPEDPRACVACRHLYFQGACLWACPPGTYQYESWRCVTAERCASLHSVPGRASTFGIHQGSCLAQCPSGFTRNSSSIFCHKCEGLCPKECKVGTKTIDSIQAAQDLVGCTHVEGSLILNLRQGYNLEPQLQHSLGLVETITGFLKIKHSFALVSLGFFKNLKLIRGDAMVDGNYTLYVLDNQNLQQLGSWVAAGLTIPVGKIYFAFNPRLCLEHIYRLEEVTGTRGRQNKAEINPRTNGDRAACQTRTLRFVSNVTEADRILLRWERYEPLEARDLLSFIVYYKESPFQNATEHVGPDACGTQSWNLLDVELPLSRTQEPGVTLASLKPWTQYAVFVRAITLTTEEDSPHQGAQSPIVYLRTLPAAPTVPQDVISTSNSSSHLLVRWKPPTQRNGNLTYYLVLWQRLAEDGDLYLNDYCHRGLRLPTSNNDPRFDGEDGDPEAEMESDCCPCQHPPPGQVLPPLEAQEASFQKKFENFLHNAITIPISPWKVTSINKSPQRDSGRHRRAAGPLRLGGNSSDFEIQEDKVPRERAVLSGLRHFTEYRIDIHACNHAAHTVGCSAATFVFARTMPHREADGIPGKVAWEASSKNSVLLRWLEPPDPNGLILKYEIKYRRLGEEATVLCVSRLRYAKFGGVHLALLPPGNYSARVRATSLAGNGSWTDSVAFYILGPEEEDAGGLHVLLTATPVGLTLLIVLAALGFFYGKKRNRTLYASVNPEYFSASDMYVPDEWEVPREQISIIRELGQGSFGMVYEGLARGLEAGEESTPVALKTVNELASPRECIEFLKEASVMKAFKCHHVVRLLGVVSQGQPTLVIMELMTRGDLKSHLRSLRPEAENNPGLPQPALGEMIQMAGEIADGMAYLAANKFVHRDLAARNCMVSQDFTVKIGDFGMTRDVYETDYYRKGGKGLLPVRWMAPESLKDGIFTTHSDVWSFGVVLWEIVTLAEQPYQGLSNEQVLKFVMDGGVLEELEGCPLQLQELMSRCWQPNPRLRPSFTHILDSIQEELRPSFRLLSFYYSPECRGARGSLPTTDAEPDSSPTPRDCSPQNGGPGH
UniProt P06239: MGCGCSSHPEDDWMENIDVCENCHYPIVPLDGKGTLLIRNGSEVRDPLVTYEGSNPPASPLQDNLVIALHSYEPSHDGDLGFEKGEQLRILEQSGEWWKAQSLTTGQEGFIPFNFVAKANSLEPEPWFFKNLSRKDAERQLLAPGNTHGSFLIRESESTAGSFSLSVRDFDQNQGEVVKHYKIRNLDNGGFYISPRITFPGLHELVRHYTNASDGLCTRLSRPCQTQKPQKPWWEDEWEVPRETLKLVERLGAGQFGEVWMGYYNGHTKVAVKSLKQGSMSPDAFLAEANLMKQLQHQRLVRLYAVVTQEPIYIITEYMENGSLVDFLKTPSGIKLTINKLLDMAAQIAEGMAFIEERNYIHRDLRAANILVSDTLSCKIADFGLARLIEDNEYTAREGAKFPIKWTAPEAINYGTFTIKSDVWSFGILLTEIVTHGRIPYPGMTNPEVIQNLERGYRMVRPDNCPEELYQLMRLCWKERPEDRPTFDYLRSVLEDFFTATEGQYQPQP
UniProt P53671: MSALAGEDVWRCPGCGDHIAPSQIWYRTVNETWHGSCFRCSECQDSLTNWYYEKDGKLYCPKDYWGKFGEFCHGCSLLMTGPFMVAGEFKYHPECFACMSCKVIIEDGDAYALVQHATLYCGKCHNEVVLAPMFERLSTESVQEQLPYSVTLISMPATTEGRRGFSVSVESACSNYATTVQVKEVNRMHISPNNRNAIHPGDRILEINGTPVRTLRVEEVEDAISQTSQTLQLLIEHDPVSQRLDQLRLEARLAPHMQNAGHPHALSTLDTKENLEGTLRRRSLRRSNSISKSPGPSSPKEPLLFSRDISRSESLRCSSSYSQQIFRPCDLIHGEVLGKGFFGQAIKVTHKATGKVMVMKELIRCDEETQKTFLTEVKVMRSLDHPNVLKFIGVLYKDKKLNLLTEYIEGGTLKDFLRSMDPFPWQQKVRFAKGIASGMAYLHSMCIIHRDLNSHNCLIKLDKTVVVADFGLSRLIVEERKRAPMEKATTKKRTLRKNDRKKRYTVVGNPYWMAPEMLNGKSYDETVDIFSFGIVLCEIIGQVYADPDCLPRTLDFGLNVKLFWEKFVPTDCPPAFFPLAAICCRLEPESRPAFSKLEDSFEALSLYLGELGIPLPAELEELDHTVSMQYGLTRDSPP
UniProt P07948: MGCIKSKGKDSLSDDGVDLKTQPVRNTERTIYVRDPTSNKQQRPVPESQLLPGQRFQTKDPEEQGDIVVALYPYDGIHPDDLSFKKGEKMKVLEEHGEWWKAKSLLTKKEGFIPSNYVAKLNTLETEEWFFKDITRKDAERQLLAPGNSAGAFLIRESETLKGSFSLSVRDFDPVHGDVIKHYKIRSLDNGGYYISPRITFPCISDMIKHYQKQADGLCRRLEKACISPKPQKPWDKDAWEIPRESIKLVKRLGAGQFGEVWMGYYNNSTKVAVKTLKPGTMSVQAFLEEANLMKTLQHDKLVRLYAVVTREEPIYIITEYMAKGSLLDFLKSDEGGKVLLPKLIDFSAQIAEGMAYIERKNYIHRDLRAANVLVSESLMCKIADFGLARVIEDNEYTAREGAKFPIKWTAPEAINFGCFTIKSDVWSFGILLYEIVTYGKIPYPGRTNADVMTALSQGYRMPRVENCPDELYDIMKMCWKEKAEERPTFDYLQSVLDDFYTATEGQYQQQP

Tests used:
Experiment in all cases: kinase-Nluc reporter destabilization hit call (1 = scored as downregulated) (binary); higher = compound decreases kinase abundance
Details in all cases: K562, 2-18 h
ERN1 = ERN1 (UniProt O75460)
FGFR1 = FGFR1 (UniProt P11362)
FGFR2 = FGFR2 (UniProt P21802)
FGFR3 = FGFR3 (UniProt P22607)
FGR = FGR (UniProt P09769)
FLT3 = FLT3 (UniProt P36888)
FYN = FYN (UniProt P06241)
GSK3A = GSK3A (UniProt P49840)
HER2 = HER2 (UniProt P04626)
INSRR = INSRR (UniProt P14616)
IRAK3 = IRAK3 (UniProt Q9Y616)
JAK1 = JAK1 (UniProt P23458)
LCK = LCK (UniProt P06239)
LIMK1 = LIMK1 (UniProt P53667)
LIMK2 = LIMK2 (UniProt P53671)
LMTK2 = LMTK2 (UniProt Q8IWU2)
LYN = LYN (UniProt P07948)
MAP2K1 = MAP2K1 (UniProt Q02750)
MAP2K2 = MAP2K2 (UniProt P36507)
MAP4K2 = MAP4K2 (UniProt Q12851)

Measured: kinase-Nluc reporter destabilization hit call

Nc1cncc(-c2cn3ccnc3c(Nc3ccc(N4CCN(C5COC5)CC4)cc3)n2)n1 [Lanraplenib]
inactive: ERN1; 10 µM 0 | FGFR1; 10 µM 0 | FGFR2; 10 µM 0 | FGFR3; 10 µM 0 | FGR; 10 µM 0 | FLT3; 10 µM 0 | FYN; 10 µM 0 | GSK3A; 10 µM 0 | HER2; 10 µM 0 | INSRR; 10 µM 0 | IRAK3; 10 µM 0 | JAK1; 10 µM 0 | LCK; 10 µM 0 | LIMK1; 10 µM 0 | LIMK2; 10 µM 0 | LMTK2; 10 µM 0 | LYN; 10 µM 0 | MAP2K1; 10 µM 0 | MAP2K2; 10 µM 0 | MAP4K2; 10 µM 0

C=CC(=O)N1CCN(c2ncnc3c(F)c(-c4c(O)cccc4F)c(Cl)cc23)CC1
inactive: ERN1; 2.5 µM 0 | ERN1; 10 µM 0 | FGFR1; 2.5 µM 0 | FGFR1; 10 µM 0 | FGFR2; 2.5 µM 0 | FGFR2; 10 µM 0 | FGFR3; 2.5 µM 0 | FGFR3; 10 µM 0 | FGR; 2.5 µM 0 | FGR; 10 µM 0 | FLT3; 2.5 µM 0 | FLT3; 10 µM 0 | FYN; 2.5 µM 0 | FYN; 10 µM 0 | GSK3A; 2.5 µM 0 | GSK3A; 10 µM 0 | HER2; 2.5 µM 0 | HER2; 10 µM 0 | INSRR; 2.5 µM 0 | INSRR; 10 µM 0 | IRAK3; 2.5 µM 0 | IRAK3; 10 µM 0 | JAK1; 2.5 µM 0 | JAK1; 10 µM 0 | LCK; 2.5 µM 0 | LCK; 10 µM 0 | LIMK1; 2.5 µM 0 | LIMK1; 10 µM 0 | LIMK2; 2.5 µM 0 | LIMK2; 10 µM 0 | LMTK2; 2.5 µM 0 | LMTK2; 10 µM 0 | LYN; 2.5 µM 0 | LYN; 10 µM 0 | MAP2K1; 2.5 µM 0 | MAP2K1; 10 µM 0 | MAP2K2; 2.5 µM 0 | MAP2K2; 10 µM 0 | MAP4K2; 2.5 µM 0 | MAP4K2; 10 µM 0

c1cc(-c2cnn3cc(-c4ccc(OCCN5CCCCC5)cc4)cnc23)ccn1 [Dorsomorphin]
inactive: ERN1; 2.5 µM 0 | FGFR1; 2.5 µM 0 | FGFR2; 2.5 µM 0 | FGFR3; 2.5 µM 0 | FGR; 2.5 µM 0 | FLT3; 2.5 µM 0 | FYN; 2.5 µM 0 | GSK3A; 2.5 µM 0 | HER2; 2.5 µM 0 | INSRR; 2.5 µM 0 | IRAK3; 2.5 µM 0 | JAK1; 2.5 µM 0 | LCK; 2.5 µM 0 | LIMK1; 2.5 µM 0 | LIMK2; 2.5 µM 0 | LMTK2; 2.5 µM 0 | LYN; 2.5 µM 0 | MAP2K1; 2.5 µM 0 | MAP2K2; 2.5 µM 0 | MAP4K2; 2.5 µM 0

CNC(=O)c1ccccc1Nc1cc(Nc2ccc(N3CCOCC3)cc2OC)ncc1C(F)(F)F [PND-1186 (hydrochloride)]
inactive: ERN1; 10 µM 0 | FGFR1; 10 µM 0 | FGFR2; 10 µM 0 | FGFR3; 10 µM 0 | FGR; 10 µM 0 | FLT3; 10 µM 0 | FYN; 10 µM 0 | GSK3A; 10 µM 0 | HER2; 10 µM 0 | INSRR; 10 µM 0 | IRAK3; 10 µM 0 | JAK1; 10 µM 0 | LCK; 10 µM 0 | LIMK1; 10 µM 0 | LIMK2; 10 µM 0 | LMTK2; 10 µM 0 | LYN; 10 µM 0 | MAP2K1; 10 µM 0 | MAP2K2; 10 µM 0 | MAP4K2; 10 µM 0

Cn1cc(-c2cnc3ccc4ccc(CS(=O)(=O)NCc5ccccn5)cc4c(=O)c3c2)cn1 [MK-8033 (hydrochloride)]
inactive: ERN1; 10 µM 0 | FGFR1; 10 µM 0 | FGFR2; 10 µM 0 | FGFR3; 10 µM 0 | FGR; 10 µM 0 | FLT3; 10 µM 0 | FYN; 10 µM 0 | GSK3A; 10 µM 0 | HER2; 10 µM 0 | INSRR; 10 µM 0 | IRAK3; 10 µM 0 | JAK1; 10 µM 0 | LCK; 10 µM 0 | LIMK1; 10 µM 0 | LIMK2; 10 µM 0 | LMTK2; 10 µM 0 | LYN; 10 µM 0 | MAP2K1; 10 µM 0 | MAP2K2; 10 µM 0 | MAP4K2; 10 µM 0

FC(F)(F)c1ccc(CNc2ccc(Cc3c[nH]c4ncc(Cl)cc34)cn2)cn1 [Pexidartinib]
inactive: ERN1; 10 µM 0 | FGFR1; 10 µM 0 | FGFR2; 10 µM 0 | FGFR3; 10 µM 0 | FGR; 10 µM 0 | FLT3; 10 µM 0 | FYN; 10 µM 0 | GSK3A; 10 µM 0 | HER2; 10 µM 0 | INSRR; 10 µM 0 | IRAK3; 10 µM 0 | JAK1; 10 µM 0 | LCK; 10 µM 0 | LIMK1; 10 µM 0 | LIMK2; 10 µM 0 | LMTK2; 10 µM 0 | LYN; 10 µM 0 | MAP2K1; 10 µM 0 | MAP2K2; 10 µM 0 | MAP4K2; 10 µM 0

C=CC(=O)Nc1cc(Nc2ncc(C(=O)OC(C)C)c(-c3cn(C)c4ccccc34)n2)c(OC)cc1N(C)CCN(C)C [Mobocertinib]
active: HER2; 10 µM 1
inactive: ERN1; 10 µM 0 | FGFR1; 10 µM 0 | FGFR2; 10 µM 0 | FGFR3; 10 µM 0 | FGR; 10 µM 0 | FLT3; 10 µM 0 | FYN; 10 µM 0 | GSK3A; 10 µM 0 | INSRR; 10 µM 0 | IRAK3; 10 µM 0 | JAK1; 10 µM 0 | LCK; 10 µM 0 | LIMK1; 10 µM 0 | LIMK2; 10 µM 0 | LMTK2; 10 µM 0 | LYN; 10 µM 0 | MAP2K1; 10 µM 0 | MAP2K2; 10 µM 0 | MAP4K2; 10 µM 0

O=C(c1ccc(F)c(F)c1Nc1ccc(I)cc1F)N1CC(O)([C@@H]2CCCCN2)C1 [Cobimetinib]
inactive: ERN1; 10 µM 0 | FGFR1; 10 µM 0 | FGFR2; 10 µM 0 | FGFR3; 10 µM 0 | FGR; 10 µM 0 | FLT3; 10 µM 0 | FYN; 10 µM 0 | GSK3A; 10 µM 0 | HER2; 10 µM 0 | INSRR; 10 µM 0 | IRAK3; 10 µM 0 | JAK1; 10 µM 0 | LCK; 10 µM 0 | LIMK1; 10 µM 0 | LIMK2; 10 µM 0 | LMTK2; 10 µM 0 | LYN; 10 µM 0 | MAP2K1; 10 µM 0 | MAP2K2; 10 µM 0 | MAP4K2; 10 µM 0
